We go through two substances from article PMC5031503.

The chains behind the UniProt entries cited, without tags or fusion partners.
UniProt Q9NYB9: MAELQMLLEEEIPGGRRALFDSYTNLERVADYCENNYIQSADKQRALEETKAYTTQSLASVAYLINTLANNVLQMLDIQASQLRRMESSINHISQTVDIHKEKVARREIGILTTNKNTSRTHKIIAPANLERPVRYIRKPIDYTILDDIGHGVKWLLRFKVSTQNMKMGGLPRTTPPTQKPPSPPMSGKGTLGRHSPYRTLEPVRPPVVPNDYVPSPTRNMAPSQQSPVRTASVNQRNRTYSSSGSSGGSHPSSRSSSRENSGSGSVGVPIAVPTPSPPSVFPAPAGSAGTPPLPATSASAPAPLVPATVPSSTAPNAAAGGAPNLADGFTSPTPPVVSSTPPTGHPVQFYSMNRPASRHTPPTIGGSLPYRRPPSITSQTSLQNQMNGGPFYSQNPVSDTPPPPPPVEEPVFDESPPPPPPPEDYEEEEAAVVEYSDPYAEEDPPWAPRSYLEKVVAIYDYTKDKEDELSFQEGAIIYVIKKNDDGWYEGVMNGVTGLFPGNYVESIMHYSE
UniProt Q70E73: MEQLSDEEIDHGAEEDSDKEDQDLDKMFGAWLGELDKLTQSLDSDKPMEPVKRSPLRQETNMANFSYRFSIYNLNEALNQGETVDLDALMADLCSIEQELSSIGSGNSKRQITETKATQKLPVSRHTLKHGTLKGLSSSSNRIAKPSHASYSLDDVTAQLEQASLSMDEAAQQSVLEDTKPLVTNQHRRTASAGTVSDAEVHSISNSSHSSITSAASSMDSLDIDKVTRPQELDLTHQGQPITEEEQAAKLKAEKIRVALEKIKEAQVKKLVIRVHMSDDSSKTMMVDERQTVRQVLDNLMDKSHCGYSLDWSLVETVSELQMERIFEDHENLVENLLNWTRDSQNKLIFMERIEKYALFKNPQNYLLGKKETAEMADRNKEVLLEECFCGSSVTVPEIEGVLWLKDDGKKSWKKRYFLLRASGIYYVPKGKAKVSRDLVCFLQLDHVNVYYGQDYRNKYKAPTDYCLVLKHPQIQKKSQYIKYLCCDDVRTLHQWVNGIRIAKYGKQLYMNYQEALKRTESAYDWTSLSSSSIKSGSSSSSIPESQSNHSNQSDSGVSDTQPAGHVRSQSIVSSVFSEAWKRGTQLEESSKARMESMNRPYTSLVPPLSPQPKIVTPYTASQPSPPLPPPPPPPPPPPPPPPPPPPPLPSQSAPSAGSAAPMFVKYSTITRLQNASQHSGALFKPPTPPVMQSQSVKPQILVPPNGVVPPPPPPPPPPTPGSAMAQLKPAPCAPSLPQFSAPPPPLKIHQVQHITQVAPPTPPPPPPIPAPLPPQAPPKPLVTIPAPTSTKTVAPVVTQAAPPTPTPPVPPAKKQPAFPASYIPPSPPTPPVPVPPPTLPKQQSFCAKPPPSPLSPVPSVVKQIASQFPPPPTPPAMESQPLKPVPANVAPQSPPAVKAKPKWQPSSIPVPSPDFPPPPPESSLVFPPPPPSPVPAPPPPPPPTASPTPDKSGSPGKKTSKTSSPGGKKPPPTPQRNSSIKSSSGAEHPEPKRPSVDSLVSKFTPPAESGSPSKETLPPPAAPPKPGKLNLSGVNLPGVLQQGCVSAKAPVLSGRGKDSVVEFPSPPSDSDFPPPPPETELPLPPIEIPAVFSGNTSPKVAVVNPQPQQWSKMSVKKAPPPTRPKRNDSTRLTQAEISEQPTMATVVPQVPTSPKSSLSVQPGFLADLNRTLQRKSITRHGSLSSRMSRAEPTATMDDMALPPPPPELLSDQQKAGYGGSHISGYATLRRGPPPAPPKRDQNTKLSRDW
UniProt Q9Y6W5: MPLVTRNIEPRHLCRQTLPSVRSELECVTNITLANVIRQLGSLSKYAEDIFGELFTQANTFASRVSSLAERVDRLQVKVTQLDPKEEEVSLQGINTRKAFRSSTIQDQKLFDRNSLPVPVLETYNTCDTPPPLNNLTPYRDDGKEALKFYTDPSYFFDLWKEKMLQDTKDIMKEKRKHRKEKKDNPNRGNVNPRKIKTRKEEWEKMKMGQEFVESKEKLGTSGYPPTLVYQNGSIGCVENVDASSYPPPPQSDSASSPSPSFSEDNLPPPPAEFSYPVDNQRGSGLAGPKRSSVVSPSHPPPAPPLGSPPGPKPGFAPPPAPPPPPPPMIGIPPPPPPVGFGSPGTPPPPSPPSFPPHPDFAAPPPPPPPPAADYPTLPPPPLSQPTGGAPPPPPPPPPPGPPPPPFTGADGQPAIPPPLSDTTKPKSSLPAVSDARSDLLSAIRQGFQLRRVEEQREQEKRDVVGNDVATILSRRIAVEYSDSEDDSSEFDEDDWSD

In this assay the target is GST-Abi2 (UniProt Q9NYB9). The assay can be described thus: pull-down; GST-Abi ectopically expressed in HEK cells and pulled down from lysate; co-expressed GFP-Src or GFP; with or without the c-Src inhibitor KB SRC 4 (100 uM, 1 h) or DMSO; endogenous Scar/WAVE2 and endogenous Lpd detected.

No constants are given. Whether binding was seen depends on the method and setting. Binding seen in cells or lysates may run through a third protein. Some results given as binding are weak or reduced against the parent protein; the word gives no strength.

As for “endogenous Lpd (Lamellipodin) (from UniProt Q70E73 1-1250)”, the binding entry was “binds”.

On to “endogenous Scar/WAVE2 (from UniProt Q9Y6W5 1-498)”, for which the binding result is “binds”.
